Reference: PMC11375261

The chains behind the UniProt entries cited, without tags or fusion partners. Where a name states a change or a piece, a line headed by the entry shows the natural chain unless it says otherwise.
UniProt Q92581: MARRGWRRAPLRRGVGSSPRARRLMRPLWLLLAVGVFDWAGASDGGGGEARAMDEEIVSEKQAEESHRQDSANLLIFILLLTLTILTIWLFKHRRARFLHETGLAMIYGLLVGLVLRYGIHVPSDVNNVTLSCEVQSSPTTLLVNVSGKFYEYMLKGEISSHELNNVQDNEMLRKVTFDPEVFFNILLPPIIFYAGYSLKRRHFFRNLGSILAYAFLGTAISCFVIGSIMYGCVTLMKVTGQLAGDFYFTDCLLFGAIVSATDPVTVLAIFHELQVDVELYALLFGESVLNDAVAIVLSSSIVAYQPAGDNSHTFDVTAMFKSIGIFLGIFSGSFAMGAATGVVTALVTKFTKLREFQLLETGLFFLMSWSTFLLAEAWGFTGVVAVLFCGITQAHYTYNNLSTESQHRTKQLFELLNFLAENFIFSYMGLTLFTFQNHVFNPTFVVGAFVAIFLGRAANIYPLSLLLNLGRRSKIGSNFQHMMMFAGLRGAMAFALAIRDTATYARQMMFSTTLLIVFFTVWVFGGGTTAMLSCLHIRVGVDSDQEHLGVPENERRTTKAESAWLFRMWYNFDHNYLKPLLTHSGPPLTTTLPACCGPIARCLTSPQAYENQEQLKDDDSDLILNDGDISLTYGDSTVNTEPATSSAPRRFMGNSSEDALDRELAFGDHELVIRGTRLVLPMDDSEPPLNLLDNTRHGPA

Target: T1, c-Myc-GGA1 (mouse GGA1 in pCMV-c-Myc) (mouse) (UniProt Q8R0H9)
T1 sequence: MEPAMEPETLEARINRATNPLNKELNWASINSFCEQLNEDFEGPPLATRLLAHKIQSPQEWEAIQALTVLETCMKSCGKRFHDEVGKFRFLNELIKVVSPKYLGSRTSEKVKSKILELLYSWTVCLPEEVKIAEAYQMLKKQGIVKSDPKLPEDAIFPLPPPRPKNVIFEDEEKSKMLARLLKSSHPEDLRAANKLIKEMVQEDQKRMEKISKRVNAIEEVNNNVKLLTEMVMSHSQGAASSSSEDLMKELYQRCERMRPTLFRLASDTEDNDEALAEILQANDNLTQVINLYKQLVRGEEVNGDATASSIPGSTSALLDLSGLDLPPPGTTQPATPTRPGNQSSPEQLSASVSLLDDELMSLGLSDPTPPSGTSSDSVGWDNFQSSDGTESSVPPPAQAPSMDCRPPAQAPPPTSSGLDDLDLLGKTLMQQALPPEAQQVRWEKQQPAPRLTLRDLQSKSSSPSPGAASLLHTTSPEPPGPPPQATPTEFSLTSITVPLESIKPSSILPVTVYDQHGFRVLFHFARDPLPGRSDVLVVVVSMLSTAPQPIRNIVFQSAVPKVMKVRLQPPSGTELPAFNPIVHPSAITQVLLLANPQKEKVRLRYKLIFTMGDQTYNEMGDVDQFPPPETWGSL
Test: co-IP; HEK293T cells cotransfected with c-Myc-GGA1 and an HA-tagged NHE construct; lysate precipitated with anti-c-Myc, blotted with anti-NHE6 or anti-HA

Substance | binding
HA-tagged cytoplasmic domain of human NHE6.2 (NHE6-CD) (from UniProt Q92581) (domain or fragment) | binds
HA-tagged full-length human NHE6.2 (NHE6-HA) (from UniProt Q92581-1) | binds

Results are given in words; binding and its absence hold for the method and conditions named. In cells and extracts the contact can be indirect. Binding calls can cover weak binding; strength is not graded here. Tags and fused reporters may be left off the sequences shown.
